Measurements as given in patent US7749539B2, “Polymeric formulations for drug delivery” (Efrat Biopolymers Ltd., priority 2000, dated 2010).
Some of these results come from one statement about several compounds together. For at least one compound, name, drawing or mass did not settle the structure.

Experiment: Release of drugs from poly(RA-SA) liquid polymer
Type: physicochemical
Details: 20% w/w loading, 0.1M phosphate buffer pH7.4, 37°C

| Compound | duration of constant drug release |
| --- | --- |
| CN(C)[C@@H]1C(O)=C(C(N)=O)C(=O)[C@@]2(O)C(O)=C3C(=O)c4c(O)cccc4[C@@](C)(O)[C@H]3C[C@@H]12 [tetracycline] | at least 10 days |
| aminocycline | at least 10 days |
| N=C(NCCCCCCNC(=N)NC(=N)Nc1ccc(Cl)cc1)NC(=N)Nc1ccc(Cl)cc1 [chlorhexidin] | at least 10 days |
| risporidol | at least 10 days |
